Laboratory results published in PubChem BioAssay AID2685 (National Center for Advancing Translational Sciences (NCATS), 2010).
Some of the results follow. Shown are side measurements of this screen, not its main read-out; they come without a call. Compounds called inactive in the main read-out are mostly missing here. Potencies come from curve fits of mixed quality, noted in brackets.

Assay: qHTS Assay for Lipid Storage Modulators in Drosophila S3 Cells;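 on cell number change: cells counted by Cell Tracker Red CMTPX staining in the red channel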
Settings: BODIPY lipid droplet fluorescence, 18-24 h; for cell number change: measured here: cell count max response, cells fed with added oleic acid
How it was run: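 Drosophila S3 cells got compounds at several concentrations plus oleic acid (400 uM solution). Laser-scanning cytometry with 488 nm excitation read lipid droplets at 500-530 nm and cells at 575-640 nm. Percent activity was relative to 20 uM Triacsin C.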

[1] = measured here: lipid fluorescence (Fed channel) AC50, cells fed with added oleic acid
[2] = measured here: cell number channel AC50, cells fed with added oleic acid

Compound `Cc1cccc(NCc2ccc(N(C)C)cc2)n1` has a cell number change of 5.03%.
Compound `CC(Oc1ccccc1)C(=O)Nc1nnc(S(=O)(=O)N2CCCCC2)s1` (centres undefined) has a cell number change of -15.2%.
With `COc1ccccc1C(CNC(=O)c1ccc(NS(=O)(=O)c2ccc3c(c2)OCCO3)cc1)N(C)C` (centres undefined) the AC50 [1] was 3.66 µM [falling, partial curve].
For `O=c1cc(C(F)(F)F)nc(SCc2cccnc2)[nH]1`, the cell number change was -85.2% and the AC50 [1] was 0.651 µM [falling, partial curve, poor fit].
Work on `Clc1ccc(COn2ccnc2)cc1Cl` yielded a cell number change of 6.69%.
For `CCCc1cc(=O)[nH]c(SCc2ccc(Cl)cc2)n1`, the cell number change was -42.1%, the AC50 [2] was 0.651 µM [falling, full curve] and the AC50 [1] was 0.731 µM [falling, full curve].
With `O=C(CCCN1C(=O)/C(=C/c2cccs2)SC1=S)Nc1cccc(O)c1` the cell number change was -6.58% and the AC50 [1] was 35.5 µM [rising, single point].
With `CC1c2cc3c(cc2CCN1C(=O)c1cccc(Cl)c1)OCCCO3` (centres undefined) the cell number change was -42.8%, the AC50 [2] was 29.1 µM [falling, single point] and the AC50 [1] was 16.4 µM [falling, partial curve].
`O=c1[nH]c(C2CCCN(S(=O)(=O)c3ccc(F)cc3)C2)nc2c1nnn2Cc1ccccc1` (centres undefined) showed a cell number change of -17.8%.
For `CCCCC(CC)Cn1c(O)c(/C=C2\C=NN=C2c2ccccc2)sc1=S` (centres undefined), the cell number change was -20.3% and the AC50 [1] was 16.4 µM [falling, single point].
With `N#Cc1cccc(NC(=O)N2CCC(c3nc4c(nnn4Cc4cccc(Cl)c4)c(=O)[nH]3)CC2)c1` the cell number change was -20.8%.
With `S=C(NCCCc1ccccc1)NCc1ccccc1` the cell number change was -0.578% and the AC50 [1] was 6.51 µM [rising, single point].
With `CC(=O)Nc1ccccc1OCC(O)CS(=O)(=O)c1ccc(C(F)(F)F)cn1` (centres undefined) the cell number change was 19.7% and the AC50 [2] was 4.11 µM [rising, single point].
Compound `CCCN1CCC(=O)N([C@H](CO)Cc2ccccc2)CC1` has a cell number change of 17.1%.
For `CC(=O)c1nnn(-c2nc(N3CCCC3)nc(N(c3ccccc3)c3ccccc3)n2)c1C`, the cell number change was -182%, the AC50 [2] was 20.6 µM [falling, partial curve] and the AC50 [1] was 29.1 µM [falling, single point].
For `CCN(CC)CCn1c(SCC(=O)NCc2ccco2)nc2c(sc3ccccc32)c1=O`, the AC50 [1] was 5.8 µM [falling, partial curve].
In the case of `COc1ccc(/C=C(\NC(=O)c2ccc(Cl)cc2)C(=O)NCCCN2CCOCC2)cc1OC`, the cell number change is reported as -11.5% and the AC50 [1] is reported as 0.116 µM [rising, single point].
In the case of `COc1ccc(NCC(O)Cn2c(C)c(C)c3ccccc32)cc1` (centres undefined), the cell number change is reported as -38.5%, the AC50 [2] is reported as 29.1 µM [falling, single point] and the AC50 [1] is reported as 1.84 µM [falling, partial curve].
For `O=C(CSc1nnnn1-c1ccc(C(=O)O)cc1)NC1CC1`, the cell number change was -1.74%, the AC50 [2] was 1.3 µM [rising, partial curve] and the AC50 [1] was 6.51 µM [rising, single point].
In the case of `CC1CCCCC1NC(=O)CSc1ccc([N+](=O)[O-])cc1` (centres undefined), the cell number change is reported as -20.8% and the AC50 [1] is reported as 29.1 µM [falling, single point].
For `CC(=O)O[C@H]1CC[C@@]2(C)[C@@H](CC[C@@H]3[C@@H]2CC[C@]2(C)[C@@H](C(C)(C)O)C[C@@H]32)C1`, the cell number change was -18.1% and the AC50 [1] was 23.1 µM [falling, partial curve].
For `Cc1ccc(NC(=O)Nc2ccccc2)cc1[N+](=O)[O-]`, the cell number change was -31.1%, the AC50 [2] was 29.1 µM [falling, single point] and the AC50 [1] was 16.4 µM [falling, partial curve, poor fit].
With `COC(=O)c1ccccc1-c1ccc(/C=N/NC(=O)c2cc3ccccc3o2)o1` the cell number change was 17.4% and the AC50 [1] was 2.59 µM [rising, full curve].
In the case of `c1coc(C2Nc3ccccc3C3OCCC23)c1` (centres undefined), the cell number change is reported as 4.21%.
With `Cc1ccc(NC(=O)CCCCCN2C(=O)[C@@H]3Cc4ccccc4CN3C2=O)cc1` the cell number change was 25.3% and the AC50 [1] was 0.0731 µM [rising, full curve, poor fit].
For `CN(C(=O)CCNC(=O)Cn1cnc2ccccc2c1=O)c1ccccc1F`, the cell number change was -21.8% and the AC50 [1] was 5.17 µM [falling, single point].
For `CS(=O)(=O)N(CC(=O)Nc1cccnc1)c1ccc2c(c1)OCCO2`, the cell number change was -0.674% and the AC50 [1] was 0.231 µM [falling, full curve, poor fit].
With `CC(C)CC(c1nnnn1Cc1ccc(F)cc1)N1CCC(C(N)=O)CC1` (centres undefined) the cell number change was 7.51% and the AC50 [1] was 6.51 µM [rising, single point].
With `COC(=O)c1c(NC(=O)CN2C(=O)NC3(CCCCC3C)C2=O)sc2c1CCC2` (centres undefined) the AC50 [1] was 1.64 µM [falling, partial curve].
In the case of `O=C(CSc1nc2ccccc2c(=O)[nH]1)N1CCN(c2ccccc2F)CC1`, the AC50 [1] is reported as 4.11 µM [falling, partial curve, poor fit].
For `N/C(Cc1ccc([N+](=O)[O-])cc1)=N\OC(=O)C1CCCCC1`, the cell number change was -12.6%.
Compound `O=C(NC1CCCCC1)c1cc2c(cc1Cl)N1CCCCCC1=NS2(=O)=O` has a cell number change of -8.43%.
With `Cc1ccc(CNC(=O)N[C@@H](Cc2ccccc2)C(=O)O)cc1` the cell number change was 10.3% and the AC50 [1] was 6.51 µM [rising, single point].
With `NC(=O)c1c(NC(=O)COC(=O)c2ccc(S(=O)(=O)Nc3ccccc3)cc2)sc2c1CCCC2` the AC50 [2] was 2.59 µM [rising, partial curve, poor fit] and the AC50 [1] was 3.66 µM [rising, partial curve].
With `C/C=C/c1ccc(OCCN2CCc3ccccc3C2)c(OC)c1` the cell number change was 1.15% and the AC50 [1] was 7.31 µM [rising, partial curve].
With `COc1ccc(Nc2nnc(SC(C(=O)Nc3ccc(OC)c(Cl)c3)c3ccccc3)s2)cc1` (centres undefined) the cell number change was -40.1%, the AC50 [2] was 0.00651 µM [falling, full curve, poor fit] and the AC50 [1] was 23.1 µM [falling, single point].
For `CC(=O)c1c(C)[nH]c(C(=O)Nc2nc(-c3ccc(Cl)cc3)cs2)c1C`, the cell number change was -15.5%.
For `CCC(=O)Nc1c2c(nn1-c1ccc(C)cc1)CS(=O)(=O)C2`, the cell number change was -82.1% and the AC50 [2] was 29.1 µM [falling, single point].
For `CSCCC(NC(=O)c1ccco1)C(=O)OCC(=O)N1c2ccccc2NC(=O)C1(C)C` (centres undefined), the cell number change was -14.7% and the AC50 [1] was 18.4 µM [falling, single point].
In the case of `COc1ccc(C(=O)COC(=O)CCCN=C2NS(=O)(=O)c3ccccc32)c(OC)c1`, the cell number change is reported as -8.03% and the AC50 [1] is reported as 20.6 µM [falling, single point].
For `Cc1nn(C)c(C)c1NC(=O)CCCSc1nc(-c2ccco2)cc(C(F)(F)F)n1`, the cell number change was -39.1%, the AC50 [2] was 14.6 µM [falling, single point] and the AC50 [1] was 18.4 µM [falling, single point].
`O=C(OC(C(=O)Nc1ccc(Cl)c(C(F)(F)F)c1)c1ccccc1)C1=COCCO1` (centres undefined) showed a cell number change of 19.3%.
In the case of `c1cc2c(cc1-n1cnnn1)OCO2`, the cell number change is reported as 30.3% and the AC50 [2] is reported as 29.1 µM [rising, single point].
In the case of `COc1ccccc1/C=C/C=N/n1c(-c2ccncc2)n[nH]c1=S`, the cell number change is reported as 7.82% and the AC50 [1] is reported as 0.082 µM [rising, full curve, poor fit].
In the case of `O=C(Nn1c(O)c(C=C2N=c3ccccc3=N2)sc1=S)c1ccccc1Cl`, the cell number change is reported as 2.79% and the AC50 [1] is reported as 0.58 µM [falling, partial curve, poor fit].
For `COc1cc(C)ccc1OCc1cc(C(=O)NCCN2CCCC(O)C2)no1` (centres undefined), the cell number change was -12.9%, the AC50 [2] was 0.146 µM [rising, full curve, poor fit] and the AC50 [1] was 29.1 µM [rising, single point].
With `CC(C)CCNC(=O)C(C)N(C(=O)Cn1nnc(-c2ccc(F)cc2)n1)C1CCCC1` (centres undefined) the cell number change was 13.4% and the AC50 [2] was 1.46 µM [rising, full curve, poor fit].
For `COc1ccc(N2C(=O)C(Cl)=C(NCc3ccccc3)C2=O)cc1`, the cell number change was 75.6%, the AC50 [2] was 16.4 µM [rising, partial curve] and the AC50 [1] was 3.66 µM [rising, single point].
For `CCNc1nc2c(c(=O)[nH]c(=O)n2C)n1Cc1ccc(F)cc1`, the cell number change was 39.5% and the AC50 [2] was 11.6 µM [rising, partial curve, poor fit].
In the case of `COCCn1c(C)cc(C(=O)COC(=O)C23CC4CC(CC(O)(C4)C2)C3)c1C`, the cell number change is reported as 22.8% and the AC50 [1] is reported as 18.4 µM [rising, single point].
For `S=C(NCCCN1CCOCC1)Nc1cccc(Cl)c1`, the cell number change was -56%, the AC50 [2] was 0.00517 µM [falling, full curve, poor fit] and the AC50 [1] was 0.00517 µM [falling, full curve, poor fit].
With `COc1ccc(/C=C/C(=O)C2C(=O)C=C(C)OC2=O)cc1O` (centres undefined) the cell number change was -20.6% and the AC50 [1] was 29.1 µM [falling, single point].
In the case of `Cc1ccc2ccc(C(Nc3ccccn3)c3ccccc3)c(O)c2n1` (centres undefined), the cell number change is reported as -43.8%, the AC50 [2] is reported as 20.6 µM [falling, single point] and the AC50 [1] is reported as 1.3 µM [falling, partial curve].
For `COc1ccccc1S(=O)(=O)Cc1ccc(C(=O)NCc2ccc3c(c2)OCO3)o1`, the cell number change was 92.2%, the AC50 [2] was 0.651 µM [rising, full curve] and the AC50 [1] was 0.411 µM [rising, full curve].
For `COc1ccc(N2CCN(C(c3cc4cc(C)ccc4[nH]c3=O)c3nnnn3Cc3ccccc3)CC2)cc1` (centres undefined), the cell number change was 1.14% and the AC50 [1] was 6.51 µM [rising, single point].
For `CC1CCN(S(=O)(=O)c2ccc(NC(=S)NC(=O)c3ccc(Cl)cc3)cc2)CC1`, the cell number change was -4.38% and the AC50 [1] was 1.16 µM [rising, single point].
Compound `CCOc1ccc(CCNC(=O)CCc2nnc3ccc(N4CCCC4)nn23)cc1OCC` has a cell number change of -28.2%.
In the case of `O=C(Nc1cccc(N2C(=O)C=CC2=O)c1)c1cccs1`, the cell number change is reported as -95.5%, the AC50 [2] is reported as 9.2 µM [falling, partial curve] and the AC50 [1] is reported as 11.6 µM [falling, partial curve].
